Data as given in PubChem BioAssay AID588590 (National Center for Advancing Translational Sciences (NCATS), 2011).
The whole screen tested about 390,000 compounds, of which about 4,000 (1%) were called active. The shares of active, inactive and inconclusive entries below differ from those in the screen. The call rests on the fitted dose curve; in most records, active means well fitted inhibition curve with a large enough effect; inconclusive means small, poorly fitted or top-dose-only effect, or another doubt; inactive means no such curve, though single readings can be large or run the other way. A potency beside an inconclusive call is a rough fit, not a confirmed value.

By UniProt entry, the sequences of proteins in these tests, tags left out. Where a name states a change or a piece, a line headed by the entry shows the natural chain unless it says otherwise.
UniProt Q9UNA4: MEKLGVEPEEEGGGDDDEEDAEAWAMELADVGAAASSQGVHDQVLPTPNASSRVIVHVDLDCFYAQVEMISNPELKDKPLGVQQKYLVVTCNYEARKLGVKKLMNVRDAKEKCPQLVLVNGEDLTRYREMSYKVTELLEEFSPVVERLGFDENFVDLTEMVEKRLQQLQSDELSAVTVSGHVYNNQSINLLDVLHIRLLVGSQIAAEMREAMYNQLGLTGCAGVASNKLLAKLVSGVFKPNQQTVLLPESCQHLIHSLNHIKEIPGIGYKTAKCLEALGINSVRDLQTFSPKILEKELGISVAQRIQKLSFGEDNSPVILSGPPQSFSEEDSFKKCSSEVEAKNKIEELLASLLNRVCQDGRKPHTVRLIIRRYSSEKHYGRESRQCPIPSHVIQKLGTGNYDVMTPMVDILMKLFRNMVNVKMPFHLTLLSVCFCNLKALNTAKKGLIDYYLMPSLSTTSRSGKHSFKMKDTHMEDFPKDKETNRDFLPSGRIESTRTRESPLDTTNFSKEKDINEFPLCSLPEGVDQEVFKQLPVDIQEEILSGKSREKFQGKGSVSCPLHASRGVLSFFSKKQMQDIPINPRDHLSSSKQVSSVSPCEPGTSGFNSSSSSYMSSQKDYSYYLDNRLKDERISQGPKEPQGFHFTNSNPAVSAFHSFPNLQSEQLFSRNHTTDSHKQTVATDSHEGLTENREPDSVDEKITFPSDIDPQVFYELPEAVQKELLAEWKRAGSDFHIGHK

target: DNA polymerase iota (Homo sapiens) (UniProt Q9UNA4); assay: qHTS for Inhibitors of Polymerase Iota; settings: Pol iota fluorescent replication assay, 10 min; series mostly up to 115 µM; activity, negative = inhibition: at the top concentration
Summary of the method: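 Fluorescent replication assay read twice, at 0 min and 10 min after adding 50 nM (final) substrate. Enzyme (10 nM) and compounds were first incubated 15 min at room temperature; enzyme-free buffer wells were negative controls.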
Potency means the concentration at half of the fitted maximal effect.

| SMILES | Potency | activity, negative = inhibition |
| --- | --- | --- |
| COc1cccc(-n2nnnc2SCC(=O)NCc2ccco2)c1 | inconclusive: 50.1 µM [inhibitor, partial curve, poor fit] | – |
| O=C(NCc1ccccn1)C1CCN(S(=O)(=O)c2cnc[nH]2)CC1 | inconclusive: 11.2 µM [inhibitor, full curve, poor fit] | – |
| O=C(CNC(=O)OCc1ccccc1)Oc1cc2oc(=O)cc(-c3ccccc3)c2cc1Cl | inconclusive: 70.8 µM [inhibitor, partial curve, poor fit] | – |
| COC(=O)c1c(C)[nH]c(C)c1C(=O)c1ccccc1Cc1ccccc1 | inconclusive: 100 µM [inhibitor, single point] | – |
| Cn1cc(C=C2C(=O)CC(C)(C)CC2=O)c2ccccc21 | inconclusive: 25.1 µM [inhibitor, single point] | – |
| O=c1cc(CSc2ccc(Cl)cc2)[nH]c2[nH]n(-c3ccccc3)c(=O)c12 | inconclusive: 22.4 µM [inhibitor, full curve] | – |
| O=C(Nc1ccc(N2CCOCC2)cc1)c1ccc2nc(-c3ccco3)c(-c3ccco3)nc2c1 | – | inactive: -5.31% |
| CC/C(=N/Nc1cccc(C)c1)c1cnnc(SC)n1 | – | inactive: 12.7% |
| COc1ccc2nc(NC(=O)CN3CCN(C)CC3)sc2c1 | inconclusive: 31.6 µM [inhibitor, single point] | – |
| CCOc1cc(N2CCOCC2)c(OCC)cc1NC(=O)c1ccc2ncsc2c1 | inconclusive: 20 µM [inhibitor, partial curve, poor fit] | – |
| C=C1C(=O)OC2C1CCC(C)=C1C(=O)C3OC3(C)C12 (stereo not given) | inconclusive: 25.1 µM [inhibitor, partial curve, poor fit] | – |
| CCCCOc1ccc(C2C(=O)N(C3CCCCC3)CC(=O)N2CCCC)cc1 (stereo not given) | – | inactive: 18.2% |
| C=CCn1c(SCC(=O)c2ccc(NS(=O)(=O)c3ccccc3)cc2)nnc1-c1cccs1 | inconclusive: 15.8 µM [inhibitor, full curve, poor fit] | – |
| CCCCc1ccc(NC(=O)CSC2=C(C#N)C(c3ccco3)C3=C(CCCC3=O)N2)cc1 (stereo not given) | inconclusive: 31.6 µM [inhibitor, full curve, poor fit] | – |
| C=CCn1c(CSc2nc3ccccc3s2)nnc1SCC(=O)NCc1ccco1 | inconclusive: 56.2 µM [inhibitor, partial curve, poor fit] | – |
| COc1ccc(-c2nc3cccc(C)n3c2NCc2ccco2)cc1OC | inconclusive: 25.1 µM [inhibitor, full curve, poor fit] | – |
| CC(C)c1ccc(NC(=O)c2sccc2-n2cccc2)cc1 | inconclusive: 4.47 µM [inhibitor, full curve, poor fit] | – |
| Cc1ccc(N2CC(C(=O)NCc3ccco3)CC2=O)cc1Cl (stereo not given) | inconclusive: 10 µM [inhibitor, partial curve, poor fit] | – |
| O=c1[nH]c(C2CCCN(S(=O)(=O)c3ccccc3)C2)nc2c1nnn2Cc1ccc(OC(F)(F)F)cc1 (stereo not given) | inconclusive: 79.4 µM [inhibitor, single point] | – |
| CCCCNc1c(-c2ccc(-c3ccc(C(C)=O)cc3)c(OC)c2)nc2cc(C)ccn12 | inconclusive: 15.8 µM [inhibitor, partial curve, poor fit] | – |

| SMILES | Potency | activity, negative = inhibition |
| --- | --- | --- |
| CCOc1cc(/C=C2\CN(CC)C/C(=C\c3ccc(O)c(OCC)c3)C2=O)ccc1O | inconclusive: 22.4 µM [inhibitor, single point] | – |
| Cc1[nH]c(=O)n(C(C)C)c(=O)c1Br | inconclusive: 100 µM [inhibitor, single point] | – |
| O=C1NC(=S)NC1=Cc1ccco1 | inconclusive: 3.16 µM [inhibitor, full curve, poor fit] | – |
| CCOC(=O)c1cnc(SCC(=O)Nc2ccc(NC(C)=O)c(OC)c2)nc1N | – | inactive: 13.2% |
| COc1cc2oc(=O)cc(-c3cccc(-c4ccc(C(F)(F)F)cc4)c3)c2c(OC)c1OC | inconclusive: 63.1 µM [inhibitor, single point] | – |
| O=C(O)[C@@H](c1ccccc1)N1Cc2ccccc2C1=O | inconclusive: 0.891 µM [inhibitor, full curve, poor fit] | – |
| C=C(C)CC(NCCc1ccccc1)c1ccco1 (stereo not given) | inconclusive: 89.1 µM [inhibitor, single point] | – |
| COc1ccccc1C(=O)Nc1nc(-c2ccc3c(c2)OCCO3)cs1 | inconclusive: 12.6 µM [inhibitor, partial curve] | – |
| CCOC(=O)N1CCC(N2Cc3cccc(C(=O)N4CC(C)CC(C)C4)c3C2=O)CC1 (stereo not given) | inconclusive: 112 µM [inhibitor, partial curve, poor fit] | – |
| Cc1ccc(-c2nn(-c3ccccc3)cc2CN(Cc2ccccc2)C(=O)c2ccco2)o1 | inconclusive: 11.2 µM [inhibitor, partial curve, poor fit] | – |
| Cc1ccc(S(=O)(=O)/N=C2\C=C(Nc3cccc(C(=O)O)c3)C(=O)c3ccccc32)cc1 | active: 3.98 µM | – |
| COc1ccc(Cn2c(=O)[nH]c3cc(C(=O)N4CCN(C(=O)c5ccco5)CC4)ccc3c2=O)cc1 | – | inactive: 36.2% |
| Clc1cc2nc(-c3cccnc3Cl)[nH]c2cc1Cl | inconclusive: 89.1 µM [inhibitor, single point] | – |
| CC[C@H]1C(=O)[C@@H](Cc2ccccc2)[C@@H]2CCN3C(=O)CCC[C@H]1[C@H]23 | inactive | – |
| COc1ccc(OC)c(CNC(=O)CCc2cn(C)c3ccccc23)c1 | inconclusive: 12.6 µM [inhibitor, partial curve, poor fit] | – |
| Cc1ccc(Nc2cc(C)nc3nncn23)c(C)c1 | – | inactive: 2.95% |
| O=C1OC(/C(=C\Nc2ccccc2)[N+](=O)[O-])c2ccccc21 (stereo not given) | inconclusive: 50.1 µM [inhibitor, partial curve] | – |
| CCC(C(=O)Nc1ccccc1C(=O)OC)n1c(C)c2cnn(-c3ccccc3)c(=O)c2c1C (stereo not given) | inconclusive: 79.4 µM [inhibitor, single point] | – |
| CC(C)(C)c1csc(NC(=O)c2cccs2)n1 | – | inactive: 2.29% |
| CCn1cc(C(=O)NCCCOC(C)C)c(=O)c2cc(S(=O)(=O)N3CCc4ccccc4C3)ccc21 | – | inactive: 28.2% |

Looked up above.
Clc1cc2nc(-c3cccnc3Cl)[nH]c2cc1Cl – Potency: inconclusive: 89.1 µM [inhibitor, single point]
CCOc1cc(/C=C2\CN(CC)C/C(=C\c3ccc(O)c(OCC)c3)C2=O)ccc1O – Potency: inconclusive: 22.4 µM [inhibitor, single point]
O=C1OC(/C(=C\Nc2ccccc2)[N+](=O)[O-])c2ccccc21 (stereo not given) – Potency: inconclusive: 50.1 µM [inhibitor, partial curve]
